No constants are given. Whether binding was seen depends on the method and setting. In cells and extracts the contact can be indirect. Some entries that bind do so weakly or less than the wild type.

Sequences of proteins named here, by UniProt entry; tags and fusion partners are left off.
UniProt P14618: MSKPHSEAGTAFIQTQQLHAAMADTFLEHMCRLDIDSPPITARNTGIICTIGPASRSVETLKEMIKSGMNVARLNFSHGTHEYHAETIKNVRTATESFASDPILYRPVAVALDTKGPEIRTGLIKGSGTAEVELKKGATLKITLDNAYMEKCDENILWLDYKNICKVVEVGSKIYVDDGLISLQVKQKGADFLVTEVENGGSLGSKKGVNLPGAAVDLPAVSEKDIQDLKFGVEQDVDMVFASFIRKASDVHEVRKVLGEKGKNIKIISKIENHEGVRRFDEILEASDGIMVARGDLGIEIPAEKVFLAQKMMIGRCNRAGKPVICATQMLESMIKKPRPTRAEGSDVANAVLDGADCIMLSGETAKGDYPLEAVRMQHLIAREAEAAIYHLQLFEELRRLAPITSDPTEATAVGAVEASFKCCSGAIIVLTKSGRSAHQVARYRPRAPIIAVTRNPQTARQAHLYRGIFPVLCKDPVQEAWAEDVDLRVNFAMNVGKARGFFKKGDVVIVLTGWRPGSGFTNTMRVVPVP

Our source for the binding values is PMC12627471.

This test addresses T1, Transketolase (TKT) (human) (UniProt P29401).
T1 sequence: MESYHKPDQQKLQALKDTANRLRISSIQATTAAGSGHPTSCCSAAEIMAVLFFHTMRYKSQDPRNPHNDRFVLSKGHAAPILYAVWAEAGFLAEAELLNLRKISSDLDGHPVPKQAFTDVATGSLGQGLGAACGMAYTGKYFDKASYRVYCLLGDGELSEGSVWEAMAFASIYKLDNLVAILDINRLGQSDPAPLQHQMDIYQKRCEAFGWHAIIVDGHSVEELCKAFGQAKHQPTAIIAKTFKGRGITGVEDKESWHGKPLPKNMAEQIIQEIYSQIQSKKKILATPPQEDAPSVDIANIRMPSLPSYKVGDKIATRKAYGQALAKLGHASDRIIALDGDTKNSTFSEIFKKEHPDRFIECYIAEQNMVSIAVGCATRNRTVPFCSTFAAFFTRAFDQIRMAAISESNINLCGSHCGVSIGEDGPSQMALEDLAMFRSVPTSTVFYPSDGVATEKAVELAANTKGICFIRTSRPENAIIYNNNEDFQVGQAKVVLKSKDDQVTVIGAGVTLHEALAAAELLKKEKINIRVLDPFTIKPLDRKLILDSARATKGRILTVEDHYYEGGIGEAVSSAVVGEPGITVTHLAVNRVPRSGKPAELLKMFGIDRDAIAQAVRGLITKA
Description: co-IP; ACHN cells lysed in Cell Lysis Buffer for Western and IP; primary antibody overnight at 4 °C; protein A/G-agarose beads 2 h at 4 °C; three washes with lysis buffer; western blot.

Turning to “Pyruvate kinase M2 (PKM2) (from UniProt P14618 1-531) (enzyme)”, the binding result is recorded as “binds”.
